No constants are given. Whether binding was seen depends on the method and setting. In cells and extracts the contact can be indirect. A result given as binding can be weak or reduced; the word gives no strength.
Target: HPV42-E7, 3xMYC-tagged (human papillomavirus 42)
Experiment: co-IP; U2OS transfected with 3xMYC-tagged E7; 24 h 1 umol/L MG-132; lysate on anti-MYC agarose beads 2 h at 4 C; immunoblot

B1: pRB, endogenous in U2OS (protein, UniProt P06400 1-928)
chain: MPPKTPRKTAATAAAAAAEPPAPPPPPPPEEDPEQDSGPEDLPLVRLEFEETEEPDFTALCQKLKIPDHVRERAWLTWEKVSSVDGVLGGYIQKKKELWGICIFIAAVDLDEMSFTFTELQKNIEISVHKFFNLLKEIDTSTKVDNAMSRLLKKYDVLFALFSKLERTCELIYLTQPSSSISTEINSALVLKVSWITFLLAKGEVLQMEDDLVISFQLMLCVLDYFIKLSPPMLLKEPYKTAVIPINGSPRTPRRGQNRSARIAKQLENDTRIIEVLCKEHECNIDEVKNVYFKNFIPFMNSLGLVTSNGLPEVENLSKRYEEIYLKNKDLDARLFLDHDKTLQTDSIDSFETQRTPRKSNLDEEVNVIPPHTPVRTVMNTIQQLMMILNSASDQPSENLISYFNNCTVNPKESILKRVKDIGYIFKEKFAKAVGQGCVEIGSQRYKLGVRLYYRVMESMLKSEEERLSIQNFSKLLNDNIFHMSLLACALEVVMATYSRSTSQNLDSGTDLSFPWILNVLNLKAFDFYKVIESFIKAEGNLTREMIKHLERCEHRIMESLAWLSDSPLFDLIKQSKDREGPTDHLESACPLNLPLQNNHTAADMYLSPVRSPKKKGSTTRVNSTANAETQATSAFQTQKPLKSTSLSLFYKKVYRLAYLRLNTLCERLLSEHPELEHIIWTLFQHTLQNEYELMRDRHLDQIMMCSMYGICKVKNIDLKFKIIVTAYKDLPHAVQETFKRVLIKEEEYDSIIVFYNSVFMQRLKTNILQYASTRPPTLSPIPHIPRSPYKFPSSPLRIPGGNIYISPLKSPYKISEGLPTPTKMTPRSRILVSIGESFGTSEKFQKINQMVCNSDRVLKRSAEGSNPPKPLKKLRFDIEGSDEADGSKHLPGESKFQQKLAEMTSTRTRMQKQKMNDSMDTSNKEEK
In the case of B1, the binding is reported as “binds”.
